{"source": "paper PMC9613470", "about": "“Diverse MarR bacterial regulators of auxin catabolism in the plant microbiome” (Nature Microbiology, 2022)", "tested_on": "V. paradoxus CL14", "assay": "IAA degradation by V. paradoxus CL14 wild type, deletion and complemented strains (Salkowski reagent)", "assay_type": "cell-based, Variovorax paradoxus CL14", "conditions": "at 70 hours", "note": "Values joined by “and” are separate entries in the source; they are usually repeats but may differ in a detail not shown here. Equal values may be shown once.", "data": [{"smiles": "O=C(O)Cc1c[nH]c2ccccc12", "note": "[IAA, indole-3-acetic acid]", "values": [{"measurement": "IAA (mg/mL), single measures", "setting": "CL14 ΔHS33 background carrying Vector 2", "result": "0.005142 mg/mL and 0.008114 mg/mL and 0.005127 mg/mL"}, {"measurement": "IAA (mg/mL), single measures", "setting": "CL14 ΔHS33 background carrying pBBR1::61-49", "result": "0.1083 mg/mL and 0.1116 mg/mL and 0.1137 mg/mL"}, {"measurement": "IAA (mg/mL), single measures", "setting": "CL14 ΔHS33 background carrying pBBR1::61-54", "result": "0.1113 mg/mL and 0.1079 mg/mL and 0.1099 mg/mL"}, {"measurement": "IAA (mg/mL), single measures", "setting": "CL14 ΔHS33 background carrying pBBR1::61-59", "result": "0.1186 mg/mL and 0.125 mg/mL and 0.1166 mg/mL"}, {"measurement": "IAA (mg/mL), single measures", "setting": "CL14 ΔHS33 background carrying pBBR1::65-54", "result": "0.1076 mg/mL and 0.1063 mg/mL and 0.1085 mg/mL"}, {"measurement": "IAA (mg/mL), single measures", "setting": "CL14 ΔHS33 background carrying pBBR1::65-62", "result": "0.1077 mg/mL and 0.1068 mg/mL and 0.1104 mg/mL"}, {"measurement": "IAA (mg/mL), single measures", "setting": "CL14 ΔHS33 background carrying pBBR1::70-62", "result": "0.006047 mg/mL and 0.00671 mg/mL and 0.006551 mg/mL"}, {"measurement": "IAA (mg/mL), single measures", "setting": "CL14 ΔHS33 background carrying pBBR1::70-66 (iadCDEFG)", "result": "0.004755 mg/mL and 0.004311 mg/mL and 0.004654 mg/mL"}, {"measurement": "IAA (mg/mL), single measures", "setting": "CL14 ΔHS33 background carrying pBBR1::72-66", "result": "0.004568 mg/mL and 0.006321 mg/mL and 0.004955 mg/mL"}, {"measurement": "IAA (mg/mL), single measures", "setting": "CL14 ΔHS33 background carrying pBBR1::72-71", "result": "0.1037 mg/mL and 0.1022 mg/mL and 0.09963 mg/mL"}, {"measurement": "IAA (mg/mL), single measures", "setting": "CL14 ΔHS33 background carrying pBBR1::77-71", "result": "0.1057 mg/mL and 0.1078 mg/mL and 0.1056 mg/mL"}, {"measurement": "IAA (mg/mL), single measures", "setting": "CL14 ΔHS33 background carrying pBBR1::77-73", "result": "0.1072 mg/mL and 0.106 mg/mL and 0.105 mg/mL"}, {"measurement": "IAA (mg/mL), single measures", "setting": "CL14 ΔHS33 background carrying pBBR1::iadCDE", "result": "0.004554 mg/mL and 0.004354 mg/mL and 0.007057 mg/mL"}, {"measurement": "IAA (mg/mL), single measures", "setting": "CL14 ΔHS33 background carrying pBBR1::iadCDEF", "result": "0.007288 mg/mL and 0.003997 mg/mL and 0.004125 mg/mL"}, {"measurement": "IAA (mg/mL), single measures", "setting": "CL14 ΔHS33 background carrying pBBR1::iadCDEG", "result": "0.005788 mg/mL and 0.006349 mg/mL"}, {"measurement": "IAA (mg/mL), single measures", "setting": "CL14 ΔHS33 background carrying pBBR1::iadCDFG", "result": "0.1286 mg/mL and 0.1307 mg/mL and 0.1292 mg/mL"}, {"measurement": "IAA (mg/mL), single measures", "setting": "CL14 ΔHS33 background carrying pBBR1::iadCEFG", "result": "0.1464 mg/mL and 0.1065 mg/mL and 0.1581 mg/mL"}, {"measurement": "IAA (mg/mL), single measures", "setting": "CL14 ΔHS33 background carrying pBBR1::iadDE", "result": "0.01004 mg/mL and 0.005788 mg/mL and 0.005572 mg/mL"}, {"measurement": "IAA (mg/mL), single measures", "setting": "CL14 ΔHS33 background carrying pBBR1::iadDEFG", "result": "0.006119 mg/mL and 0.005544 mg/mL"}, {"measurement": "IAA (mg/mL), single measures", "setting": "CL14 ΔHS33 background carrying pBBR1MCS-2", "result": "0.1086 mg/mL and 0.1159 mg/mL and 0.1128 mg/mL"}]}]}
